Test results as given in US20040186081A1, “Naaladase inhibitors for treating opioid tolerance” (Guilford Pharmaceuticals Inc., priority 2003, published 2004).
Entries after “also recorded” stand apart in the source; their conditions may differ.

What was measured:
[1] = tested on: C57/BL mice; conditions: mouse, in vivo
Method: (§1) Male C57/BL mice (IMP, Lodz, Poland), 22-24 g of body weight were group-housed in the standard laboratory cages and kept in a temperature-controlled colony room (21+2° C.) with a 12-hr light/dark cycle (light on: 07:00, off: 19:00). Commercial food and tap water were available ad libitum. Each experimental group consisted of 7-28 mice per treatment. All mice were used only once.
(§2) The intensity of the heat stimulus was adjusted so that the baseline tail-flick latency was ˜3 s. […] Each response assessment consisted of two separate measurements taken at different portions of the tail (spaced by 1.5-2 cm) and separated by 15 s. The mean of these responses was used for subsequent comparisons.

[2] = tested on: C57/BL mice; assay: Acute effects in the tail-flick test (Experiment 2); conditions: mouse, in vivo
Method: as §1, §2

## CN1CC[C@]23c4c5ccc(O)c4O[C@H]2[C@@H](O)C=C[C@H]3[C@H]1C5 [Morphine, reference compound]
[1]
  Fold Shift of morphine ED50: 6.44
[2]
  tail-flick responses (AUC) compared to placebo+placebo: statistically significantly longer tail-flick responses; also recorded: differed significantly
